Taken from: PubChem BioAssay AID652243 (Drosophila RNAi Screening Center, 2013)

- Screen: 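Fly regulators of androgen-dependent reporter output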 (primary screen)
- Cell system: Drosophila S2R+ cells
- Knock-down reagent: long dsRNA against Drosophila genes
- Time to read-out: 72 h (48 h, then 24 h hormone)
- Treatment: synthetic androgen R1881 at 10 nM for 24 h
- Measured: 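Firefly light from an androgen-responsive reporter and Renilla control light per well, raw and unnormalised, for each of two replicates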
- Reading the numbers: firefly reporter light: higher = more light from androgen-responsive reporter; Renilla control light: higher = more constitutive control signal (cell number, transfection)
- Call rule: 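Across duplicate plates, a knock-down whose log firefly/Renilla ratio shifted a set fold down or up from the GFP/LacZ control mean was a hit; the downward cut appears as both 1.5 and 3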
- Calls: active = hit: reporter lowered or raised; inactive = no hit
The screen tested about 24,000 reagents; this is a random part of those with a known target gene and a result. Over the whole deposit, 246 (1%) got an active call. 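Plates not normalised; calls are printed but the firefly/Renilla ratio behind them is not deposited; fold cut for lowering reported inconsistently.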 The raw values are shown without normalisation. The numbers tell different reagents against one gene apart. The record does not give: the amount of reagent.

Gene	reagent	firefly reporter light, replicate 1	firefly reporter light, replicate 2	Renilla control light, replicate 1	Renilla control light, replicate 2	call
Ir52d (Ionotropic receptor 52d)	1	47456	93863	8.92e5	8.92e5	inactive
Nmdmc (NAD-dependent methylenetetrahydrofolate dehydrogenase)	1	39541	72707	4.53e5	5.01e5	inactive
Nmdmc (NAD-dependent methylenetetrahydrofolate dehydrogenase)	2	2.96e5	3.17e5	6.90e5	6.05e5	inactive
l(1)10Bb (lethal (1) 10Bb)	1	4.29e5	5.84e5	4.08e6	3.93e6	inactive
RpL5 (Ribosomal protein L5)	1	2.29e5	2.02e5	1.34e6	1.22e6	inactive
RpL5 (Ribosomal protein L5)	2	5.31e5	4.05e5	2.41e5	2.83e5	inactive
Ir76b (Ionotropic receptor 76b)	1	2.66e5	2.56e5	2.59e6	3.37e6	inactive
CG18536	1	1.04e5	1.01e5	1.70e6	1.70e6	inactive
RpL39 (Ribosomal protein L39)	1	3.30e5	3.26e5	1.53e6	1.73e6	inactive
dnt (doughnut on 2)	1	8.27e5	9.53e5	1.31e6	1.34e6	inactive
dnt (doughnut on 2)	2	5.25e5	5.71e5	8.13e5	8.09e5	inactive
dnt (doughnut on 2)	3					inactive
snk (snake)	1	20940	26647	6.41e5	7.22e5	inactive
ana (anachronism)	1	1.36e6	1.04e6	1.16e6	9.30e5	inactive
ana (anachronism)	2	6.83e5	7.50e5	7.49e5	7.13e5	inactive
ana (anachronism)	3	8.41e5	7.12e5	2.34e6	1.83e6	inactive
CG13255	1	2.07e5	2.30e5	2.57e6	2.49e6	inactive
CG32091	1	1.41e5	1.64e5	2.03e6	1.71e6	inactive
CNMa (CNMamide)	1	1.07e5	60272	1.49e6	1.63e6	inactive
CG15756	1	3.40e5	2.96e5	2.60e6	2.71e6	inactive
CG15756	2	8.50e5	7.02e5	7.86e5	1.02e6	inactive
CG34050 (retired record)	1	2.14e5	1.32e5	4.15e5	2.11e5	inactive
CG34050 (retired record)	2	3.53e5	3.02e5	7.56e5	6.06e5	inactive
bou (boudin)	1	2.42e5	3.70e5	2.73e6	2.86e6	inactive

Individual results from above:
Entry for Nmdmc (NAD-dependent methylenetetrahydrofolate dehydrogenase) #2 in “Renilla control light, replicate 2”: 6.05e5
CG13255, firefly reporter light, replicate 1 → 2.07e5
For “Renilla control light, replicate 2”, ana (anachronism) #1 is entered as 9.30e5
Nmdmc (NAD-dependent methylenetetrahydrofolate dehydrogenase) #1, Renilla control light, replicate 2: 5.01e5
